For this test, the target named is T1, GFP-tagged Drosophila STING (D. melanogaster).
T1 sequence: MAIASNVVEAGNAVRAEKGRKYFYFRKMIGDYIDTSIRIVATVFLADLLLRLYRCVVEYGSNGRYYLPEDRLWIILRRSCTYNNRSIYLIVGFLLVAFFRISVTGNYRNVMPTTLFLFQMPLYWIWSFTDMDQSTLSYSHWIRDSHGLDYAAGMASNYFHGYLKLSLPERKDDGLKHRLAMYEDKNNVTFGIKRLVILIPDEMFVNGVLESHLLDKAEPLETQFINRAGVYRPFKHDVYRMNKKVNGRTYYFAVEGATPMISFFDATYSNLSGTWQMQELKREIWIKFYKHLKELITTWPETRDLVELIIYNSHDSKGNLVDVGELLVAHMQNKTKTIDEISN
Nature of the test: affinity purification with mass spectrometry; anti-GFP (DSHB 4C9) immunoprecipitation from fat bodies of third-instar larvae overexpressing GFP-dSTING (tub-GAL4); IP buffer 25 mM HEPES pH 7.6, 0.1 mM EDTA, 12 mM MgCl2, 100 mM NaCl, 1% NP-40; gel bands of ~250 kDa and ~30 kDa excised; control w1118 lysate with recombinant GFP added.

The chains behind the UniProt entries cited, without tags or fusion partners.
UniProt Q9VQL7: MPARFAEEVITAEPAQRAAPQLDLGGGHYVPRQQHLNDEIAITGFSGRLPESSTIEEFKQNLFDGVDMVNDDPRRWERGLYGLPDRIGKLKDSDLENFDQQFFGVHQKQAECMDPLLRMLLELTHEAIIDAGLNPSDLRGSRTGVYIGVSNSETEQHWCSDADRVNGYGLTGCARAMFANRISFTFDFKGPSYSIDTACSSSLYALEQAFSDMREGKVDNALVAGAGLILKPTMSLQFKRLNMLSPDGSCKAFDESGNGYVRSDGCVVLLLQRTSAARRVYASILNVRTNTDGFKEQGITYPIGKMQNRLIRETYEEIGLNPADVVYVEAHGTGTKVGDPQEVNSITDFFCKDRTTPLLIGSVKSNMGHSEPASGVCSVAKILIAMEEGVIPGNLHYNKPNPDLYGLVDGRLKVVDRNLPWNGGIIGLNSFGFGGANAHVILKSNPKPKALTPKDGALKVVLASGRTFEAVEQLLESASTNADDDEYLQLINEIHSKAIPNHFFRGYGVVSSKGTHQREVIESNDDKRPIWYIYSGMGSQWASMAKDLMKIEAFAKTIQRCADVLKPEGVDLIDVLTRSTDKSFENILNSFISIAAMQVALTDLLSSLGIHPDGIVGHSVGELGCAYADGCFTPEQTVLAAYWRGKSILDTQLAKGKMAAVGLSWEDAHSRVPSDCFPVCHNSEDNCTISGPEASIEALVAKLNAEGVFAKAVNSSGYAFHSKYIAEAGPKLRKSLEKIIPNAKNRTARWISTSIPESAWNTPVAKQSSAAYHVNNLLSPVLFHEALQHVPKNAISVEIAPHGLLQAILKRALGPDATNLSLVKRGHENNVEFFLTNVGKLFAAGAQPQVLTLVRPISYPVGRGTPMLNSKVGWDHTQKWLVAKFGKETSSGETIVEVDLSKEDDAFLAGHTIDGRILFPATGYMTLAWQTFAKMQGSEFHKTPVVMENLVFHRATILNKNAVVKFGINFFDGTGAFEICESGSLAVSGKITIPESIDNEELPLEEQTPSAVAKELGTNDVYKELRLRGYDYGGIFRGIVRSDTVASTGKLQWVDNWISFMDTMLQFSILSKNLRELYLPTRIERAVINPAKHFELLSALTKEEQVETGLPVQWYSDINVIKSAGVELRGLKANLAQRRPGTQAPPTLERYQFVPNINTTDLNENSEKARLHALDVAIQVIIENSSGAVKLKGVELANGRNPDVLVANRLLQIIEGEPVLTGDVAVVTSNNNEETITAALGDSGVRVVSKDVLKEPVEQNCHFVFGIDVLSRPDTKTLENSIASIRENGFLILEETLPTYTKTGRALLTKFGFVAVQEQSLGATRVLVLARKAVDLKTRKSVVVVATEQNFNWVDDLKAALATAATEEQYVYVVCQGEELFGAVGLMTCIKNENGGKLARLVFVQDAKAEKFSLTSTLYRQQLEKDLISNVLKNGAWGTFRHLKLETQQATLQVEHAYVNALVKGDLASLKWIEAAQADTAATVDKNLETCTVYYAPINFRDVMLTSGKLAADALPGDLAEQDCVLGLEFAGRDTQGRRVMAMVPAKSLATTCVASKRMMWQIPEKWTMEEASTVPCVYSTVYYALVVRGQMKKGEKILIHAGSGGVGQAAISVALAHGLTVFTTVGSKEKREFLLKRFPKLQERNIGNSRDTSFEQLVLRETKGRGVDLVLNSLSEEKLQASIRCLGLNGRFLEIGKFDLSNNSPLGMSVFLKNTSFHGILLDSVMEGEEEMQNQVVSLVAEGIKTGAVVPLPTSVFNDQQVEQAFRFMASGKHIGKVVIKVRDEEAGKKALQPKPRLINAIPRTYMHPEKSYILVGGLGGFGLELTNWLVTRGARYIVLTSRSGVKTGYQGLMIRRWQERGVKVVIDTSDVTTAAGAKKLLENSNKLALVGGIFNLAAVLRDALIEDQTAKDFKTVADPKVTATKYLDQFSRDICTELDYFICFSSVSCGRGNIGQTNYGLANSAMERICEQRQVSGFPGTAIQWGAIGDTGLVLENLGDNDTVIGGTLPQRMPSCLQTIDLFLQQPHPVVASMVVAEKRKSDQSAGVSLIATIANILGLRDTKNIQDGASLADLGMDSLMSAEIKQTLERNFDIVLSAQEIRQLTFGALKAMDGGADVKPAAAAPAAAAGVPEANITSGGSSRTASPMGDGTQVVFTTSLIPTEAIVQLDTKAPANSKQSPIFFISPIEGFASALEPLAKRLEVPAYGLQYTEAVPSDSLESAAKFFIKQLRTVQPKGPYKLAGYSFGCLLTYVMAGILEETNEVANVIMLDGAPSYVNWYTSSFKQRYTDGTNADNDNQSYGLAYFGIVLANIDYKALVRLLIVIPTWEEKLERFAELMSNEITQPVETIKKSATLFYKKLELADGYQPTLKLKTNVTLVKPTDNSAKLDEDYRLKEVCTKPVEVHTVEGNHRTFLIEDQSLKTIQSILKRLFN
UniProt Q9VQL6: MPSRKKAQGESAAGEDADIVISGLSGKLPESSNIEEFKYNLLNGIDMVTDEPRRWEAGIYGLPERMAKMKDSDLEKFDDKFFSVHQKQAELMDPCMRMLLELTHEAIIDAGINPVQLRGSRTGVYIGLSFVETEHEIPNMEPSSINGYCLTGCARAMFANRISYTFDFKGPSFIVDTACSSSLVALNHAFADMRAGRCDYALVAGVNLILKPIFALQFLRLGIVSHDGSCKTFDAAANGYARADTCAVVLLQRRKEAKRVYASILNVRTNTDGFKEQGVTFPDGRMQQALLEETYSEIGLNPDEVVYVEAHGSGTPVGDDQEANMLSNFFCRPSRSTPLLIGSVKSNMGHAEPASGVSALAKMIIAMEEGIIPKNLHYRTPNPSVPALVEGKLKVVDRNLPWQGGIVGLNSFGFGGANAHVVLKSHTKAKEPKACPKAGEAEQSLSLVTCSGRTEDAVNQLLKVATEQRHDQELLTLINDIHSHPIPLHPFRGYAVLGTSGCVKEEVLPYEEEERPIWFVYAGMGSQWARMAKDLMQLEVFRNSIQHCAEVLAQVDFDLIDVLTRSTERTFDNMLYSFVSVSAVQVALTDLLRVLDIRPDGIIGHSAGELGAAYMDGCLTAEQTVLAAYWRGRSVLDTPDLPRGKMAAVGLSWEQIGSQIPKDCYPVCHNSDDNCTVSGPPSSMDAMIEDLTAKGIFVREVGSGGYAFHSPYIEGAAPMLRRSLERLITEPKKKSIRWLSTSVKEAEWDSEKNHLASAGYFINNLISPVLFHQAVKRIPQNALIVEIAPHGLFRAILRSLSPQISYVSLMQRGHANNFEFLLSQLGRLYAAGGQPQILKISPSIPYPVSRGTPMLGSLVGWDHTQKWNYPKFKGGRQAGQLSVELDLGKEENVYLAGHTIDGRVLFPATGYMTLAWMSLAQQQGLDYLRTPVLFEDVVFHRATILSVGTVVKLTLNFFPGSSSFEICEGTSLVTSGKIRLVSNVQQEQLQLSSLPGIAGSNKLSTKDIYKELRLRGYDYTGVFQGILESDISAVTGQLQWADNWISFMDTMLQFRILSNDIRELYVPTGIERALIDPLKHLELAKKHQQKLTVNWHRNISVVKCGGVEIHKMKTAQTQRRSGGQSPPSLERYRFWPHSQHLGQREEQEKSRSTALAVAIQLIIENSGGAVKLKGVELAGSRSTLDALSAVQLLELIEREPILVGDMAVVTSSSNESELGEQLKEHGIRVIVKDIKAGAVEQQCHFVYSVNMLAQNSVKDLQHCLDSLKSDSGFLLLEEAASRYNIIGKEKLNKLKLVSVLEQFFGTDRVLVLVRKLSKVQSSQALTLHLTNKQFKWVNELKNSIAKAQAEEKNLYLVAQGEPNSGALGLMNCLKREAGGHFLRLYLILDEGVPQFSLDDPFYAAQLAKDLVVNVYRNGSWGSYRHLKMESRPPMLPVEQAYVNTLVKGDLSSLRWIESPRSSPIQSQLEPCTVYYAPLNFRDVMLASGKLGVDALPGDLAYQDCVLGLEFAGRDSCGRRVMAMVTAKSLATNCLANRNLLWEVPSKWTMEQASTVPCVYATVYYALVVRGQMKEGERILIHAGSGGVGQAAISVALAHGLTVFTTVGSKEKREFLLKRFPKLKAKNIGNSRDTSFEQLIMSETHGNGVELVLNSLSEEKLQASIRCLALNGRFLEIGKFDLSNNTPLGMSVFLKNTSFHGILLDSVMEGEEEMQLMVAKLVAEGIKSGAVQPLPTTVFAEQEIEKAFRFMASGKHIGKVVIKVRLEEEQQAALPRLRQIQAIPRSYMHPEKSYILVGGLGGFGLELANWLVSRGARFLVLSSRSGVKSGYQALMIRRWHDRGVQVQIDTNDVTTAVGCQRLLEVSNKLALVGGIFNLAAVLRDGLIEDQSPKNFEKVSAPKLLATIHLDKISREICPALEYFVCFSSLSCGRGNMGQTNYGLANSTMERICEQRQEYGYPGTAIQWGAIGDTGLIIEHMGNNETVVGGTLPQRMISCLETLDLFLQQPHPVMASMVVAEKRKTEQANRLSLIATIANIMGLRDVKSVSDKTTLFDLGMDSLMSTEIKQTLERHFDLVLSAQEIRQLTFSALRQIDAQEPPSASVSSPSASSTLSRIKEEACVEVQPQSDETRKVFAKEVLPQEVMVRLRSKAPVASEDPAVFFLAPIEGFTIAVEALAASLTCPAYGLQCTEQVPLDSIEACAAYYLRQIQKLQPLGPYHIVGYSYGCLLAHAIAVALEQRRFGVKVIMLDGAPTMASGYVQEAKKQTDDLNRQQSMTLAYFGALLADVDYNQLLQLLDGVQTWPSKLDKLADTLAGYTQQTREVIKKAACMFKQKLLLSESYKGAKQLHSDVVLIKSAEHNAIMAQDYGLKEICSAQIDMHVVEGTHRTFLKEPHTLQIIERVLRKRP

Results are given in words; binding and its absence hold for the method and conditions named. In cells and extracts the contact can be indirect. A yes stands for co-enrichment or nearness to the bait. Other partners may have been found. Sequences can lack the tags named with a protein.

For the substance “acetyl-CoA carboxylase (from UniProt Q7JV23 1-2323) (enzyme)”, the binding entry is given as “binds”.

Regarding “fatty acid synthase 1 (from UniProt Q9VQL7 1-2438) (enzyme)”, the binding entry was “binds”.

On to “fatty acid synthase 2 (from UniProt Q9VQL6 1-2409) (enzyme)”, for which the binding entry is reported as “binds”.

Values taken from publication PMC8443252.
